According to paper doi:10.1101/2021.01.08.425872:
Results are given in words; binding and its absence hold for the method and conditions named. Binding calls can cover weak binding; strength is not graded here. For some assays here: In cells and extracts the contact can be indirect. For some assays here: Sequences can lack the tags named with a protein.

The chains behind the UniProt entries cited, without tags or fusion partners. Where a name states a change or a piece, a line headed by the entry shows the natural chain unless it says otherwise.
UniProt O82481: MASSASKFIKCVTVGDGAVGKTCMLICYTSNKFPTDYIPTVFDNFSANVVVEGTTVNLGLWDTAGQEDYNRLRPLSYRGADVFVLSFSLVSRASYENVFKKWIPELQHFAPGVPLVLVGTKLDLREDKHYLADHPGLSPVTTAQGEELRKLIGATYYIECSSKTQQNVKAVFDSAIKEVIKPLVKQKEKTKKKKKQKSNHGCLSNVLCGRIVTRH

Tests used:
[1] = target: ROP10 in pGBT9.BS (pGBT ROP10); test: two-hybrid
[2] = target: ROP6 in pGBT9.BS (pGBT ROP6); test: two-hybrid
YN-ROP10 = test: split reporter
YN-ROP6 = test: split reporter
YN-rop11^CA = YN-rop11^CA (UniProt O82481); test: split reporter

B1: ICR2 in pGAD GH (pGAD-ICR2) (protein, UniProt Q9ZQC5 1-583)
chain: MQTPKPRPGSLEVPQKKSPASTPKTARKLKTSESDPVSSPNTKIRTPKTQSPKVVADRRSPRTPVNEIQKKRTGKTPELASQISQLQEELKKAKEQLSASEALKKEAQDQAEETKQQLMEINASEDSRIDELRKLSQERDKAWQSELEAMQRQHAMDSAALSSTMNEVQKLKAQLSESENVENLRMELNETLSLVEKLRGELFDAKEGEAQAHEIVSGTEKQLEIANLTLEMLRSDGMKMSEACNSLTTELEQSKSEVRSLEQLVRQLEEEDEARGNANGDSSSVEELKEEINVARQEISQLKSAVEVTERRYHEEYIQSTLQIRTAYEQVDEVKSGYAQREAELGEELKKTKAERDSLHERLMDKEAKLRILVDENEILNSKIKEKEEVYLNLENSLNQNEPEDTGELKKLESDVMELRANLMDKEMELQSVMSQYESLRSEMETMQSEKNKAIDEALAKLGSLTEEADKSGKRAENATEQLGAAQVTNTELEAELRRLKVQCDQWRKAAEAAATMLSGGNNNNNSNGKYVERTGSLESPLRRRNVNMSPYMGETDDELSSPKKKNGSMLKKIGVLLKKSQK
In the case of B1, the binding [1] is reported as “binds” and the binding [2] is reported as “binds”.

B2: ICR2 fused at its carboxy terminus to the C-terminal half of YFP (ICR2-YC) (protein, UniProt Q9ZQC5 56-583)
chain: ADRRSPRTPVNEIQKKRTGKTPELASQISQLQEELKKAKEQLSASEALKKEAQDQAEETKQQLMEINASEDSRIDELRKLSQERDKAWQSELEAMQRQHAMDSAALSSTMNEVQKLKAQLSESENVENLRMELNETLSLVEKLRGELFDAKEGEAQAHEIVSGTEKQLEIANLTLEMLRSDGMKMSEACNSLTTELEQSKSEVRSLEQLVRQLEEEDEARGNANGDSSSVEELKEEINVARQEISQLKSAVEVTERRYHEEYIQSTLQIRTAYEQVDEVKSGYAQREAELGEELKKTKAERDSLHERLMDKEAKLRILVDENEILNSKIKEKEEVYLNLENSLNQNEPEDTGELKKLESDVMELRANLMDKEMELQSVMSQYESLRSEMETMQSEKNKAIDEALAKLGSLTEEADKSGKRAENATEQLGAAQVTNTELEAELRRLKVQCDQWRKAAEAAATMLSGGNNNNNSNGKYVERTGSLESPLRRRNVNMSPYMGETDDELSSPKKKNGSMLKKIGVLLKKSQK
With B2 the binding (YN-ROP10) was “binds”, the binding (YN-ROP6) was “binds” and the binding (YN-rop11^CA) was “binds”.
